From PMC11381323
Results are given in words; binding and its absence hold for the method and conditions named. In cells and extracts the contact can be indirect. Some results given as binding are weak or reduced against the parent protein; the word gives no strength.

The chains behind the UniProt entries cited, without tags or fusion partners. Residues count along the entry.
UniProt P02545, residues 1-646: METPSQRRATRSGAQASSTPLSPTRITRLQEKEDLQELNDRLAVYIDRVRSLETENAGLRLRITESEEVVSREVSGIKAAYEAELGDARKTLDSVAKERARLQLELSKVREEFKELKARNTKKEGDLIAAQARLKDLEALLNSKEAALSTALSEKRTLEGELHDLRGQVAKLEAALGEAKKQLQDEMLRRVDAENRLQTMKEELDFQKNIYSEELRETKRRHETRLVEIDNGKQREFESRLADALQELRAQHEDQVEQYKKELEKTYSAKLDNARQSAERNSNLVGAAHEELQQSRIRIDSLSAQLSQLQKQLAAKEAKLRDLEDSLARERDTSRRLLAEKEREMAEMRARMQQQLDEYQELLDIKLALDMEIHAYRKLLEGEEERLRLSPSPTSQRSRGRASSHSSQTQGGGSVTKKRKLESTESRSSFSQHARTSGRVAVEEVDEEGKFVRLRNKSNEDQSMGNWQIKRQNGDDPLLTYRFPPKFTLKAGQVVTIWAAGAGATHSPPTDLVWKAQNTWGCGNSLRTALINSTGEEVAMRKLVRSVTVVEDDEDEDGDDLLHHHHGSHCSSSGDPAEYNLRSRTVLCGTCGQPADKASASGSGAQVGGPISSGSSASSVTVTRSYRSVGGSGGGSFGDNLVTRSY
UniProt Q9UKV8: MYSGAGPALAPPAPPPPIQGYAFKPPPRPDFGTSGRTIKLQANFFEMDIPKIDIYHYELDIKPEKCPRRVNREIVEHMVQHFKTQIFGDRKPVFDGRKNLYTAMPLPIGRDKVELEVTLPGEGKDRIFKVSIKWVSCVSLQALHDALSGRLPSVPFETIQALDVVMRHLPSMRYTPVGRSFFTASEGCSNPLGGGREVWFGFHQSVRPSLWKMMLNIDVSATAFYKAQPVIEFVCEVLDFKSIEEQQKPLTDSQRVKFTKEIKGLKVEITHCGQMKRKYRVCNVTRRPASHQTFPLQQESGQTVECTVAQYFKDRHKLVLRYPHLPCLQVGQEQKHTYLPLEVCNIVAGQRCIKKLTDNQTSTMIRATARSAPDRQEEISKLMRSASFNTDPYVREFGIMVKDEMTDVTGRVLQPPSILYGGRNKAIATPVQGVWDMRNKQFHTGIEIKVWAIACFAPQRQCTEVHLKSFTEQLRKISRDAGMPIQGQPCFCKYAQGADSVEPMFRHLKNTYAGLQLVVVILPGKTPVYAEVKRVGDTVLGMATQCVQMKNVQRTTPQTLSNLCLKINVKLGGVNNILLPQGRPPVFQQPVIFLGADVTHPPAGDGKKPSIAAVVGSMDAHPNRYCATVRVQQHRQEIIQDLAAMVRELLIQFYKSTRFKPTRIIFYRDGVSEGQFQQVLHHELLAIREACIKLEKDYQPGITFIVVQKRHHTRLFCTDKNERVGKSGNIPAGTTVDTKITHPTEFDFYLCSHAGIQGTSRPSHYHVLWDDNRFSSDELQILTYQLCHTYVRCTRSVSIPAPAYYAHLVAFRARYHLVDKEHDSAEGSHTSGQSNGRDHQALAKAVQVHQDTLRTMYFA

Target: Lamin A (human (endogenous in HeLa)) (UniProt P02545)
Assay: co-IP; HeLa cells; shown in Supplemental Figure S5C; bait and conditions not given

binding: binds
Substance: Argonaute 2 (AGO2) (from UniProt Q9UKV8 1-859)
